Data as given in PMC3454373.

Target: EhXRN2 exoribonuclease (Entamoeba histolytica (endogenous in HM1-IMSS trophozoites)) (UniProt C4MB40)
Assay: co-IP; anti-EhCAF1 or anti-EhXRN2 antibodies (1:100) with protein G beads; cytoplasmic proteins (50 ug) of E. histolytica trophozoites in HNTG buffer (20 mM HEPES pH 7.5, 150 mM NaCl, 0.1% Triton, 10% glycerol), 4 C; Western blot

For “actin protein (from UniProt P11426 1-376)”, the binding was “binds”.

These are yes or no findings as the source states them, for the method shown. Binding seen in cells or lysates may run through a third protein. Binding can be weak; no strength is given.
